Data as given in doi:10.1101/2025.01.25.634861.
These are yes or no findings as the source states them, for the method shown. In cells and extracts the contact can be indirect. Some binding calls cover weakened binding; strength is not graded here.

Protein sequences, listed by entry. Tags and fused reporters are not part of them.
UniProt Q8TDX7: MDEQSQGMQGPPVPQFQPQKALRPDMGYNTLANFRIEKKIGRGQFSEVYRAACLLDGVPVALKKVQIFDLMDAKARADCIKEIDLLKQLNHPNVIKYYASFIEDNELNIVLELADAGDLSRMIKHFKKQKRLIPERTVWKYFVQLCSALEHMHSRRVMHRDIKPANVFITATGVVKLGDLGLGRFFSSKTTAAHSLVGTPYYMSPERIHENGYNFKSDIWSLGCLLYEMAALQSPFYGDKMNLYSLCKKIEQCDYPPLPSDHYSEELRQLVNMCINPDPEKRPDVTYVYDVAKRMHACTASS

Molecular target: T1, YTHDF3 (human (endogenous in HGC-27)) (UniProt Q7Z739)
T1 sequence: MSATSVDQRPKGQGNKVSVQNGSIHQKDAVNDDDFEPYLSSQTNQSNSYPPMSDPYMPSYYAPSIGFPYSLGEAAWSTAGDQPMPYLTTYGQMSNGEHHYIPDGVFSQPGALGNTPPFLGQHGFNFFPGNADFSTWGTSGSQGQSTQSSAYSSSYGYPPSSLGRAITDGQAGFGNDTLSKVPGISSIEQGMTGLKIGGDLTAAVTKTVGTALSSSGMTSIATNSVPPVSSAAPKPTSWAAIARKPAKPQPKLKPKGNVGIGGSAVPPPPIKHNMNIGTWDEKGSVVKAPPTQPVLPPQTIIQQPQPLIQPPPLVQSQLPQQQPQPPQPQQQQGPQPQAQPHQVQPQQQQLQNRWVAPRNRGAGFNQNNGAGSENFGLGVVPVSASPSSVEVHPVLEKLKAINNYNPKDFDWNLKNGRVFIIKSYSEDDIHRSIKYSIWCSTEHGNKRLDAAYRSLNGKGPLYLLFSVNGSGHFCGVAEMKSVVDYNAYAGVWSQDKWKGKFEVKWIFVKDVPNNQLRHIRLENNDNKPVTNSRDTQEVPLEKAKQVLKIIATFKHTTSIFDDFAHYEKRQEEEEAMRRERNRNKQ
Assay: co-IP

With NEK7 (from UniProt Q8TDX7 1-302) the binding was “binds”.
